Test results taken from patent US12637498B2, “PDLIM2 as a biomarker for cancer and as an anti-cancer treatment target” (UNIVERSITY OF PITTSBURGH—OF THE COMMONWEALTH SYSTEM OF …, priority 2019, dated 2026).
“Also recorded” adds a separate entry of the source. At least one structure is not confirmed: it was looked up by name or label, or the drawing left a doubt.

Columns and labels:
PDLIM2 [1] = assay: qPCR analysis of PDLIM2 expression in human lung cancer cell lines; type: cell-based
pdlim2 promoter = assay: Bisulfite genomic DNA sequencing of the pdlim2 promoter; type: cell-based; conditions: human lung cancer cell lines
PDLIM2 [2] = assay: qPCR analysis of PDLIM2 in mouse MAD109 lung cancer cells; type: cell-based
PDLIM2 [3] = assay: IHC staining of PDLIM2 in mouse lung tumors and tissues (urethane model); type: in vivo
Protocol: (§1) Urethane model: 6-8-week-old mice under FVB/N background were intraperitoneally (i.p.) injected with urethane (1 g/kg body weight, Sigma-Aldrich, St. Louis, MO, USA) once a week for six weeks. All mice were sacrificed for lung tumor examinations seven (for no drug treatment experiments) or six (for drug treatment experiments) weeks post urethane treatment. For drug treatment experiments, the epigenetic agents 5-aza-dC (1 mg/kg body weight, Sigma-Aldrich, St. Louis, MO, USA) and MS-275 (1 mg/kg body weight, Selleckchem, Houston, TX, USA), chemotherapeutic drugs carboplatin (30 mg/kg body weight, AdipoGen, San Diego, CA, USA) and paclitaxel (15 mg/kg body weight, AdipoGen, San Diego, CA, USA), and/or PD-1 neutralizing antibody (200 μg/mouse, BioXCell, West Lebanon, NH, USA) were i.p injected as indicated in FIG. 4. Surface tumors in mouse lungs were counted by three blinded readers under a dissecting microscope, and tumor diameters were measured by microcalipers. K-Ras^G12D model: 6-8-week-old mice under FVB/N background were intranasally administered 1×10^7 plaque-forming units of Cre-expressing adenovirus (adenocre; Gene Transfer Vector Core, University of Iowa, Iowa City, IA). Three months post AdenoCre treatment, all mice were sacrificed for lung tumor examinations.
(§2) Mouse or tissues were excised, fixed in formalin, embedded in paraffin, and cut into 4-pm-thick sections. […]

[4] = system: lung cancer induced by urethane; assay: Urethane model of lung cancer, tumor examination; type: in vivo, mouse; conditions: ΔSPC mice (lung epithelial PDLIM2 deletion), 5-aza-dC and MS275 combination therapy (Epi)
Protocol: as §1, with “K-Ras^G12D model: 6-8-week-old mice under FVB/N background were intranasally administered 1×10^7 plaque-forming units of Cre-expressing adenovirus (adenocre; Gene Transfer Vector Core, University of Iowa, Iowa City, IA). Three months post AdenoCre treatment, all mice were sacrificed for lung tumor examinations.” left out
PDLIM2flx/flx/SP-C-rtTAtg/−/(tetO)7CMV-Cretg/tg (ΔSPC) mice under a pure FVB/N background and PDLIM2−/− mice under a pure BABL/C background have been described before (Sun et al., Nat. Commun. 2019. 10, 5324). […] Surface tumors in mouse lungs were counted blinded under a dissecting microscope, and tumor diameters were measured by microcalipers. […]

human lung cancer cells = assay: Cell growth assays; type: cell-based; conditions: human lung cancer cells with PDLIM2 knockdown (shRNA), in vitro
Protocol: Cells were seeded into 12-well plates at a density of 5,000 cells per well, in the presence or absence of the indicated treatment. Cell density was determined by replacing the medium with 2 μmol/L of calcein AM in 1× dissociation solution (Trevigen) at the indicated time points. After 1 h of incubation, diesterase activity (relative fluorescence units) was measured with a Tecan Infinite 200 Microplate Reader, using an excitation wavelength of 485 nm and emission wavelength of 520 nm.

PD-L1 [5] = assay: qPCR of PD-L1 in lung cancer cells; type: cell-based, human
From the text: Mouse lung tissues and BAL cells were subjected to RNA extraction, RNA reverse transcription and real-time PCR as described (Li et al., Oncoimmunology 7, e1435250 (2018); Sun et al., Bio. Protoc. 7, pii: e2287 (2017)).

PD-L1 [6] = assay: IHC staining of PD-L1 in lung cancer (urethane model); type: in vivo, mouse; conditions: 5-aza-dC and MS-275 together
Protocol: as §1, §2

Nc1ncn([C@H]2C[C@H](O)[C@@H](CO)O2)c(=O)n1 [5-aza-dC, 5-azadeoxycitidine]
PDLIM2 expression (qPCR) (PDLIM2 [1]; A549 human lung cancer cells): PDLIM2 recovery
PDLIM2 expression (qPCR) (PDLIM2 [1]; human lung cancer cell lines): re-expression of PDLIM2; also recorded: PDLIM2 induction
pdlim2 promoter methylation (bisulfite genomic DNA sequencing) (pdlim2 promoter): promoter hypomethylation; also recorded: de-methylation of the pdlim2 promoter
PDLIM2 expression (qPCR) (PDLIM2 [2]): PDLIM2 re-induction
PDLIM2 expression in murine lung cancers (PDLIM2 [3]; both in vitro and in vivo): could be restored
PDLIM2 expression in mouse lung tumor (IHC staining) (PDLIM2 [3]; urethane model, 5-aza-dC and MS-275 (epigenetic drugs) given together): PDLIM2 recovery
lung cancer treatment (tumor examination) [4]: completely lost the ability to treat lung cancer; also recorded: complete resistance
cell growth (human lung cancer cells): protected human lung cancer cells; also recorded: protection of human lung cancer cells
PD-L1 expression (qPCR) (PD-L1 [5]): PD-L1 induction
PD-L1 expression in lung cancer (IHC staining) (PD-L1 [6]): PD-L1 induction
